Some of the results follow. Shown are side measurements of this screen, not its main read-out; they come without a call. The list favours compounds with an active or inconclusive main result. Potencies come from curve fits of mixed quality, noted in brackets.

Usually AC50 stands for the concentration at which the activity in the assay is half-maximal.

This test is described as follows: qHTS Assay to Find Inhibitors of Chronic Active B-Cell Receptor Signaling. The note with it: ABC-DLBCL IkBa-CBG/CBR reporter, luminescence ratio (green luciferase fused to IkBa over red control in TMD8 lymphoma cells), 4 h. The method, boiled down:
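Compounds up to 46 uM were incubated four hours with TMD8 cells whose green CBG68 luciferase is fused to IkappaBalpha; red CBR luminescence normalised the signal, and concentration-effect curves were fitted to fusion, red and ratio data.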
On the technique in general: Quantitative high-throughput screening tests each substance at several concentrations.

Where [1] appears, read: measured here: CBR red luminescence, cell number.
[2] abbreviates: measured here: IkBa-CBG green luminescence.

`COc1ccccc1/C=N/NC(=O)C(=O)Nc1ccccc1OC(F)(F)C(F)F`: under setting [1], the AC50 was 16.4 µM [falling, partial curve]. Still for that read-out and setting: for `COc1ccccc1N(CC(=O)Nc1ccc(C)cc1Cl)S(=O)(=O)c1cccs1` the value was 29.1 µM [falling, single point]. Turning to `CCOc1ccccc1C1C(C(=O)Nc2ccccc2OC)=C(C)Nc2nc(CCCO)nn21` (stereo not drawn), under setting [1], the AC50 is 29.1 µM [rising, single point]. In the case of `CCOC(=O)NC(CC(=O)O)c1ccc(OC)c(OC)c1` (stereo not drawn), the AC50 under setting [1] was 6.51 µM [rising, partial curve, poor fit]. In the case of `C=CCOC(=O)CC(NC(=O)c1ccccc1)c1ccccc1` (stereo not drawn), the AC50 under setting [1] is 17.8 µM [rising, single point]. Consider `CC(=O)NC(Cc1c[nH]c2ccccc12)C(=O)OCC(=O)Nc1ccc2c(c1)OCO2` (stereo not drawn), for which the AC50 under setting [1] was 35.5 µM [rising, single point]. Take `CCCn1c(=S)[nH]c2ccccc2c1=O`: under setting [1], the AC50 is 10 µM [rising, partial curve].

For the molecule `COc1ccccc1C(=O)Nc1nc2cc3c(cc2s1)OCCO3`, under setting [1], the AC50 is 14.1 µM [falling, partial curve, poor fit].

Turning to `Cn1cc(S(=O)(=O)NC2CCCC2)c(=O)n(C)c1=O`, under setting [1], the AC50 is 6.51 µM [rising, single point]. With `Cc1cccc(OCCCN2C(=O)C(=O)c3cc(C)ccc32)c1`, the AC50 under setting [1] was 12.6 µM [rising, partial curve] and the AC50 under setting [2] is 12.6 µM [falling, partial curve]. Take `COc1ccc(/C=N/NC(=O)c2ccc(Br)cc2)cc1Cn1cc(Cl)cn1`: under setting [1], the concentration at half-maximal activity (AC50) was 3.26 µM [falling, full curve]. `O=C(CCOc1ccccc1)Nc1ccc([N+](=O)[O-])cc1`: under setting [1], the AC50 is 3.16 µM [rising, partial curve, poor fit]. With `COc1cc(NC(=O)CCS(=O)(=O)c2nc(-c3cccs3)cc(C(F)(F)F)n2)cc(OC)c1OC`, the AC50 under setting [1] was 11.6 µM [falling, partial curve] and the AC50 under setting [2] was 10.3 µM [rising, partial curve, poor fit]. Take `COc1cc(/C=C2/SC(=S)N(Cc3ccccc3)C2=O)ccc1OCC(=O)O`: the AC50 under setting [1] is 10 µM [rising, partial curve, poor fit]. With `O=C(CSc1nnc(COc2ccc(Cl)cc2)o1)NC1CC2CCC1C2` (stereo not drawn), the AC50 under setting [1] was 35.5 µM [falling, single point]. As to `Cc1c(NS(=O)(=O)c2ccc(NCC3CCCO3)c([N+](=O)[O-])c2)c(=O)n(-c2ccccc2)n1C` (stereo not drawn), the AC50 under setting [1] was 0.112 µM [rising, full curve, poor fit].

Turning to `COc1ccc2nc(N3CCCC(O)C3)c(C#N)cc2c1` (stereo not drawn), under setting [1], the AC50 is 11.2 µM [rising, partial curve, poor fit].

Take `C/C(=N\NC(=O)CNC(=O)C(c1ccccc1)c1ccccc1)c1ccccc1`: the AC50 under setting [1] is 0.58 µM [rising, full curve, poor fit].

Regarding `CCOc1ccccc1OC(=O)c1cc2ccccc2oc1=O`, under setting [1], the AC50 is 28.2 µM [rising, single point]. Still for that read-out and setting: the same measure for `COc1ccc(C/C(N)=N/OC(=O)c2cccs2)cc1`: 20 µM [rising, partial curve, poor fit]. As to `CCCC(=O)N/C(N)=N/c1nc(C)c2cc(C)ccc2n1`, the AC50 under setting [1] was 3.55 µM [falling, full curve]. For the molecule `COC(=O)C1CCN(CC(=O)Nc2ccc(OC)c(Cl)c2)CC1`, under setting [1], the AC50 is 35.5 µM [rising, single point]. The same measure, in the same setting: the same measure for `Cn1cc(CN2CCc3sccc3C2)c(-c2ccccc2F)n1`: 3.55 µM [rising, full curve, poor fit]. For `CCc1nc(C)cn1S(=O)(=O)c1cc(Cl)c(OC)cc1Cl`, the AC50 under setting [1] is 6.31 µM [falling, single point].

In the case of `COc1ccc(S(=O)(=O)N2CCOC23CCN(S(=O)(=O)c2ccccc2)CC3)cc1`, the AC50 under setting [1] was 0.00461 µM [rising, full curve, poor fit]. Turning to `O=C(CSC(=S)N1CCOCC1)c1cc2ccccc2oc1=O`, the AC50 under setting [1] is 2.82 µM [falling, partial curve]. Consider `CC(OC(=O)c1ccc(S(=O)(=O)N2CCCCC2)cc1)C(=O)Nc1ccc(C(N)=O)cc1` (stereo not drawn), for which, under setting [1], the AC50 is 29.1 µM [rising, single point]. The same measure, in the same setting: the same measure for `O=C(C1CCCO1)N1CCN(C(=S)Nc2cc(F)cc(F)c2)CC1` (stereo not drawn): 22.4 µM [falling, partial curve, poor fit]; for `CCCCOc1ccc(C)cc1CN(CCO)CCO`: 18.4 µM [rising, single point]; for `O=C(CSc1nnc(-c2ccccn2)o1)Nc1cccc(Cl)c1`: 8.91 µM [falling, partial curve].

Turning to `CN(C)C(=O)CSc1nnc(CCN)o1`, under setting [1], the AC50 is 20 µM [rising, partial curve, poor fit]. For `COc1ccc(-c2nnc(NC(=O)CSc3ccc(C)cc3)s2)cc1OC`, the AC50 under setting [1] is 7.31 µM [rising, partial curve, poor fit]. The same measure, in the same setting: the same measure for `Cc1cc(C(=O)Nc2ncc(C)s2)c2ccccc2n1`: 25.1 µM [falling, partial curve, poor fit]; for `O=CN(/C=C1\Sc2ccccc2C1=O)Cc1ccccc1`: 11.6 µM [falling, partial curve]; for `O=[N+]([O-])c1cc(Cl)ccc1NCCNS(=O)(=O)c1ccccc1`: 2.31 µM [rising, full curve, poor fit]. For `CC(=O)NC12CC3CC(C1)CC(C(=O)N(C)Cc1cccc(Cl)c1Cl)(C3)C2`, the half-maximal activity concentration (AC50) under setting [1] is 0.794 µM [falling, partial curve, poor fit]. Turning to `COc1ccc(-c2csc(N3C(=O)CNC3=S)n2)cc1`, the AC50 under setting [1] was 0.411 µM [rising, full curve, poor fit].

With `CCCNC(=O)NC(=O)CSc1nnc(-c2c[nH]c3ccccc23)o1`, under setting [1], the AC50 was 25.1 µM [falling, partial curve, poor fit]. `O=C(Nc1ccc(N2CCN(C(=O)c3ccccc3F)CC2)cc1)c1ncn[nH]1`: the AC50 under setting [1] was 20 µM [falling, single point].

As to `O=C(CCN1C(=O)c2ccccc2S1(=O)=O)Nc1ccccc1F`, the AC50 under setting [1] was 10 µM [falling, partial curve]. In the case of `CCOc1ccc(/C=N/O)cc1`, the AC50 under setting [1] is 18.4 µM [rising, single point].

Source of the values: PubChem BioAssay AID493014 (National Center for Advancing Translational Sciences (NCATS), 2011).
